No constants are given. Whether binding was seen depends on the method and setting. Some binding calls cover weakened binding; strength is not graded here. For some assays here: Where a sequence is shown, tags or fusion partners need not be part of it.
Key:
[1] = target: MYB44 fused to the GAL4-activating domain (AD-MYB44) (UniProt Q9FDW1); assay: yeast two-hybrid, positive control
HAB2 (Arabidopsis) = target: T1, HAB2 (Arabidopsis) (UniProt Q9LNP9); assay: tandem affinity purification (anti-HA agarose, GFP-Trap) from seedlings, MS identification
T1 sequence (looked up): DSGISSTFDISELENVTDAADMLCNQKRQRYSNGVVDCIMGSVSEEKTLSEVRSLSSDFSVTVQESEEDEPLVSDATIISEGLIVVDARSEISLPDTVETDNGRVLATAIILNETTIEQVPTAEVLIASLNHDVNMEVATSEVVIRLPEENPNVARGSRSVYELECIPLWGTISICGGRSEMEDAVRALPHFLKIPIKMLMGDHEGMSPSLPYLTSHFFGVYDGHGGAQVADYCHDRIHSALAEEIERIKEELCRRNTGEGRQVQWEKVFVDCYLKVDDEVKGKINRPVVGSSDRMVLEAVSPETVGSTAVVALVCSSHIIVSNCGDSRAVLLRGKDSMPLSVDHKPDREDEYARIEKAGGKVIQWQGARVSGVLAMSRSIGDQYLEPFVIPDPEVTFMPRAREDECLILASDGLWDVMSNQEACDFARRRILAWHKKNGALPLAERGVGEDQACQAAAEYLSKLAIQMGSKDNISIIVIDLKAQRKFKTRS

The chains behind the UniProt entries cited, without tags or fusion partners. Where a name states a change or a piece, a line headed by the entry shows the natural chain unless it says otherwise.
UniProt Q9FDW1: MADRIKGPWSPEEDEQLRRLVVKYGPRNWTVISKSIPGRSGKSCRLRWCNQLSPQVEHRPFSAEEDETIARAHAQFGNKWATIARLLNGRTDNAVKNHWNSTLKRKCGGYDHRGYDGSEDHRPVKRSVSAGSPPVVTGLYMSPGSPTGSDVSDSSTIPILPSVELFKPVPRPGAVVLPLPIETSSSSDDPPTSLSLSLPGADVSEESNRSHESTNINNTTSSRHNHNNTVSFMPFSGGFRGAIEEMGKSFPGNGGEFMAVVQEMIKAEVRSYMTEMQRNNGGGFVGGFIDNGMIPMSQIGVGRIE
UniProt P04386: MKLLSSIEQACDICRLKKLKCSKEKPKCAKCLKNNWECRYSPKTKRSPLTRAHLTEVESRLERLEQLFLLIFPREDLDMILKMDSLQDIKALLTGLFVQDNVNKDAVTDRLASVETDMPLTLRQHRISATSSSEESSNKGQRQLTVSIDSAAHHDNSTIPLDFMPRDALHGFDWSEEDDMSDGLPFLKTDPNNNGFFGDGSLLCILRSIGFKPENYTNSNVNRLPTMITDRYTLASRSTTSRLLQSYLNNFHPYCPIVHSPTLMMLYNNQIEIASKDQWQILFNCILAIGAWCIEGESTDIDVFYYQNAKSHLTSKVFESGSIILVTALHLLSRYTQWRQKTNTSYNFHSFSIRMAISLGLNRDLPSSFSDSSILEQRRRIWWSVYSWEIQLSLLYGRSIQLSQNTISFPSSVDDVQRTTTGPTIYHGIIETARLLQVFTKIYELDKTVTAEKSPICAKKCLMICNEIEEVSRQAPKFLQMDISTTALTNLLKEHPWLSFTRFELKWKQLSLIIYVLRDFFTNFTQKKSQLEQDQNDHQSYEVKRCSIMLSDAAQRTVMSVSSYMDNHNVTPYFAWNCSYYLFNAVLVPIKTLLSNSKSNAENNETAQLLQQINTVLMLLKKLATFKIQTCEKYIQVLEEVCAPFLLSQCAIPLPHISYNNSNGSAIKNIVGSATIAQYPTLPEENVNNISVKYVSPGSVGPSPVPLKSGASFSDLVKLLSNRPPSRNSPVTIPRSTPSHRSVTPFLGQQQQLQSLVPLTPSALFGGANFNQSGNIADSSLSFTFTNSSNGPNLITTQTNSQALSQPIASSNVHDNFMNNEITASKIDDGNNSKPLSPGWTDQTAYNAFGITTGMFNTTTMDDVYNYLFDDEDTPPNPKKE

“PYL8 fused to the GAL4-DNA-binding domain (BD-PYL8) (from UniProt P04386 1-147; Q9FGM1 1-188)” was tested, and the binding [1] was “binds”.

B1: HA- and YFP-tagged PYL9 (PYL9-HA-YFP) (receptor)
chain: MMDGVEGGTAMYGGLETVQYVRTHHQHLCRENQCTSALVKHIKAPLHLVWSLVRRFDQPQKYKPFVSRCTVIGDPEIGSLREVNVKSGLPATTSTERLELLDDEEHILGIKIIGGDHRLKNYSSILTVHPEIIEGRAGTMVIESFVVDVPQGNTKDETCYFVEALIRCNLKSLADVSERLASQDITQ
notes: Expressed under the native PYL9 promoter in transgenic Arabidopsis seedlings; also called ProPYL9:PYL9-HA-YFP; not shown: 3HA tag at the C terminus; YFP tag at the C terminus
For B1, the binding (HAB2 (Arabidopsis)) was “binds”.
